PubChem BioAssay AID1259405 | NCATS – 2018

Test: 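Knock-downs that lift recombinant protein yield in hamster ovary cells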 (primary screen)
System: Chinese hamster CHO-K1 ovary cells with stable secreted eGFP expression
Reagent: single siRNA against mouse genes, 0.8 pmol siRNA per well (2 µl of 400 nM stock)
Time to read-out: 3 days
Measured: 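Per-well intracellular GFP measured by laser scanning cytometry, plus viability from ATP luminescence, each relative to plate median of non-targeting control wells, in %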
Scale: GFP, % of control: higher = more GFP per well, higher productivity; viability (ATP), % of control: higher = more viable cells (more ATP)
Rule for the call: 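a knock-down is called active if GFP reaches 120% or more of non-targeting control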
In all, the deposit lists about 50,000 reagents; shown is an unselected part. About 4,000 of all reagents (8%) count as active. 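Mouse siRNA library applied to hamster cells; one well for each siRNA.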 The numbers tell different reagents against one gene apart. No sequences are given here.

Target gene	siRNA no.	GFP, % of control	viability (ATP), % of control	Call
Hapln4	1	126	32.9	active
Hapln4	2	70.8	81.9	inactive
Hapln4	3	76.9	54.8	inactive
Il1a	1	168	125	active
Il1a	2	94.7	78.7	inactive
Bap1	1	81.3	91.1	inactive
Bap1	2	40.3	31.5	inactive
Bap1	3	60.6	68	inactive
Hpgd	1	76.7	72.3	inactive
Hpgd	2	53.4	50.9	inactive
Hpgd	3	92.3	73.2	inactive
Sap18	1	97.7	96.2	inactive
Sap18	2	77.3	86.4	inactive
Ceacam10	1	54.6	59.6	inactive
Ceacam10	2	64.5	72.5	inactive
Ceacam10	3	115	112	inactive
Cth	1	61.4	49.6	inactive
Cth	2	59.7	60.2	inactive
Cth	3	38.9	63.3	inactive
1700067K01Rik	1	75.7	23.8	inactive
1700067K01Rik	2	95.4	83.1	inactive
1700067K01Rik	3	76.8	76.9	inactive
Katnal1	1	55	83.8	inactive
Katnal1	2	51.5	63.5	inactive
Katnal1	3	54.3	68.5	inactive
Cox7a2l	1	109	122	inactive
Cox7a2l	2	92.3	76.9	inactive
Cox7a2l	3	85	82.5	inactive
Med25	1	73.8	62.1	inactive
Med25	2	85.1	92.8	inactive
Or13a24	1	70.9	61	inactive
Or13a24	2	137	127	active
Or13a24	3	77.3	59.8	inactive
Musk	1	110	89.1	inactive
Nck2	1	47.9	44.4	inactive
Nck2	2	92.6	85.4	inactive
Nck2	3	66.5	86.7	inactive
Vmn1r67	1	93.6	72.3	inactive
Vmn1r67	2	91	71.3	inactive
Vmn1r67	3	55.7	90.5	inactive
Mtrex	1	90.1	66.3	inactive
Mtrex	2	72.7	70.8	inactive
Mtrex	3	108	124	inactive
Or13a27	1	113	61.7	inactive
Or13a27	2	105	75.4	inactive
Or13a27	3	59.3	79.5	inactive
Tollip	1	98.6	73.4	inactive
Tollip	2	94.6	95.1	inactive
Tollip	3	134	174	active
Plekha4	1	203	60	active
Plekha4	2	118	107	inactive
Plekha4	3	127	103	active
Caskin2	1	74.3	46.6	inactive
Caskin2	2	76.9	79	inactive
Caskin2	3	50.1	21.7	inactive
Psapl1	1	85.7	87.2	inactive
Psapl1	2	40.9	40.6	inactive
Psapl1	3	53.2	77.4	inactive
Hcfc1	1	57.5	74.9	inactive
Hcfc1	2	76	65.6	inactive
Hcfc1	3	70.5	50.9	inactive
Nipsnap1	1	52.3	65.1	inactive
Nipsnap1	2	93.6	61.3	inactive
Nipsnap1	3	68.6	62.4	inactive
Vmn1r82	1	17.8	22.5	inactive
Vmn1r82	2	69.8	82.8	inactive
Vmn1r82	3	87.4	86.2	inactive
Pdlim4	1	85.7	67.2	inactive
Pdlim4	2	87.8	81	inactive
Crygc	1	114	96.7	inactive
Crygc	2	84	92.2	inactive
Crygc	3	123	103	active
Poll	1	86.9	100	inactive
Poll	2	94.7	66.5	inactive
Col23a1	1	73.2	72.8	inactive
Col23a1	2	140	101	active
Col23a1	3	103	83.7	inactive
Prnd	1	80.6	107	inactive
Prnd	2	68.7	74.5	inactive
Prnd	3	64.2	98.8	inactive
Cryaa	1	87.3	86.3	inactive
Cryaa	2	104	88	inactive
Itgax	1	63.5	72.9	inactive
Itgax	2	107	94.6	inactive
Dppa4	1	93.9	77.5	inactive
Dppa4	2	80.1	91.4	inactive
Dppa4	3	126	60.3	active
Zbtb8os	1	180	63.6	active
Zbtb8os	2	97.2	111	inactive
Zbtb8os	3	50	45.6	inactive
Or13d1	1	80.1	68.9	inactive
Or13d1	2	80.5	78.9	inactive
Or13d1	3	58	81.2	inactive
Gm5431	1	60.6	93	inactive
Gm5431	2	27.8	60.9	inactive
Gm5431	3	88.3	90.5	inactive
Cimap3	1	48.4	18.1	inactive
Cimap3	2	70.9	93.3	inactive
Cimap3	3	109	125	inactive
She	1	48.4	32	inactive
She	2	38.7	47.5	inactive
She	3	77.4	102	inactive
Chdh	1	113	76.8	inactive
Chdh	2	72	70.7	inactive
Chdh	3	65.3	61.9	inactive
Sugt1	1	71.7	83.2	inactive
Sugt1	2	52.7	31.7	inactive
Sugt1	3	74.3	82	inactive

Laid out differently: 14 of the entries above
{"Target gene": "Prnd", "siRNA no.": 3, "GFP, % of control": 64.2, "viability (ATP), % of control": 98.8, "Call": "inactive"}
{"Target gene": "Cryaa", "siRNA no.": 1, "GFP, % of control": 87.3, "viability (ATP), % of control": 86.3, "Call": "inactive"}
{"Target gene": "Cryaa", "siRNA no.": 2, "GFP, % of control": 104, "viability (ATP), % of control": 88, "Call": "inactive"}
{"Target gene": "Itgax", "siRNA no.": 1, "GFP, % of control": 63.5, "viability (ATP), % of control": 72.9, "Call": "inactive"}
{"Target gene": "Itgax", "siRNA no.": 2, "GFP, % of control": 107, "viability (ATP), % of control": 94.6, "Call": "inactive"}
{"Target gene": "Dppa4", "siRNA no.": 1, "GFP, % of control": 93.9, "viability (ATP), % of control": 77.5, "Call": "inactive"}
{"Target gene": "Dppa4", "siRNA no.": 2, "GFP, % of control": 80.1, "viability (ATP), % of control": 91.4, "Call": "inactive"}
{"Target gene": "Dppa4", "siRNA no.": 3, "GFP, % of control": 126, "viability (ATP), % of control": 60.3, "Call": "active"}
{"Target gene": "Zbtb8os", "siRNA no.": 1, "GFP, % of control": 180, "viability (ATP), % of control": 63.6, "Call": "active"}
{"Target gene": "Zbtb8os", "siRNA no.": 2, "GFP, % of control": 97.2, "viability (ATP), % of control": 111, "Call": "inactive"}
{"Target gene": "Zbtb8os", "siRNA no.": 3, "GFP, % of control": 50, "viability (ATP), % of control": 45.6, "Call": "inactive"}
{"Target gene": "Or13d1", "siRNA no.": 1, "GFP, % of control": 80.1, "viability (ATP), % of control": 68.9, "Call": "inactive"}
{"Target gene": "Or13d1", "siRNA no.": 2, "GFP, % of control": 80.5, "viability (ATP), % of control": 78.9, "Call": "inactive"}
{"Target gene": "Or13d1", "siRNA no.": 3, "GFP, % of control": 58, "viability (ATP), % of control": 81.2, "Call": "inactive"}
